According to the supplement of paper PMC10849652:
This is one part of the list.

Amino acid sequences for entries named in this document (tags omitted). A change or cut given only in a name is not applied to a line headed by its entry.
UniProt Q0VAQ4: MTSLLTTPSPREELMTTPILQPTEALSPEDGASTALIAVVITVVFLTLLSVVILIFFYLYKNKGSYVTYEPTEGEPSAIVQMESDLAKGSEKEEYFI
UniProt O76070, whole entry, looked up: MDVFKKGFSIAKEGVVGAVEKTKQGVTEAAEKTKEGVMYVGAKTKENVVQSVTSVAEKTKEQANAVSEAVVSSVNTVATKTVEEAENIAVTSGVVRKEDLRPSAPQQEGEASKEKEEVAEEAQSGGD
UniProt Q8IYB5: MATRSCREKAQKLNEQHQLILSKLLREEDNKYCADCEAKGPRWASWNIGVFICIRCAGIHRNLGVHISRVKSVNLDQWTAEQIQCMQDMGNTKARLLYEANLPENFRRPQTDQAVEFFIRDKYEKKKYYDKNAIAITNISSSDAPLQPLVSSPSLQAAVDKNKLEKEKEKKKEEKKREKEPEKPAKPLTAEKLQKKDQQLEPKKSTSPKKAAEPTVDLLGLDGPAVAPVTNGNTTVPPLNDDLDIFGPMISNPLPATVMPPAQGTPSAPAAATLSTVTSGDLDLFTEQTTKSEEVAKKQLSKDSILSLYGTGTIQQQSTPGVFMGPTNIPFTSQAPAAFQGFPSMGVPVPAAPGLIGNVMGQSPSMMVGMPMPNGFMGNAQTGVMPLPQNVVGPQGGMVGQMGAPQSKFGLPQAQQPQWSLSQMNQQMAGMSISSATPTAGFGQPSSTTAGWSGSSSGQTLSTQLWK
UniProt Q9NRG4: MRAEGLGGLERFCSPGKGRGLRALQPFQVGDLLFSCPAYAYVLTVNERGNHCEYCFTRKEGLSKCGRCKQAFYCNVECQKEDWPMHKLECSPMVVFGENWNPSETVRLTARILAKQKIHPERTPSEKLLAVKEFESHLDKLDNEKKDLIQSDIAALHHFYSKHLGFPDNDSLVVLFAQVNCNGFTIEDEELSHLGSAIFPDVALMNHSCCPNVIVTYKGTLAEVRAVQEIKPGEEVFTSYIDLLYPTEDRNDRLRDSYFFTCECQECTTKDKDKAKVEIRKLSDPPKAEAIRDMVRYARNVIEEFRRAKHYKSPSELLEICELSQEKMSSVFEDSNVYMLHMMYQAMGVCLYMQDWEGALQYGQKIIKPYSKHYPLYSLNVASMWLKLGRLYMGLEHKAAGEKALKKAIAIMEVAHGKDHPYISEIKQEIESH
UniProt O60641: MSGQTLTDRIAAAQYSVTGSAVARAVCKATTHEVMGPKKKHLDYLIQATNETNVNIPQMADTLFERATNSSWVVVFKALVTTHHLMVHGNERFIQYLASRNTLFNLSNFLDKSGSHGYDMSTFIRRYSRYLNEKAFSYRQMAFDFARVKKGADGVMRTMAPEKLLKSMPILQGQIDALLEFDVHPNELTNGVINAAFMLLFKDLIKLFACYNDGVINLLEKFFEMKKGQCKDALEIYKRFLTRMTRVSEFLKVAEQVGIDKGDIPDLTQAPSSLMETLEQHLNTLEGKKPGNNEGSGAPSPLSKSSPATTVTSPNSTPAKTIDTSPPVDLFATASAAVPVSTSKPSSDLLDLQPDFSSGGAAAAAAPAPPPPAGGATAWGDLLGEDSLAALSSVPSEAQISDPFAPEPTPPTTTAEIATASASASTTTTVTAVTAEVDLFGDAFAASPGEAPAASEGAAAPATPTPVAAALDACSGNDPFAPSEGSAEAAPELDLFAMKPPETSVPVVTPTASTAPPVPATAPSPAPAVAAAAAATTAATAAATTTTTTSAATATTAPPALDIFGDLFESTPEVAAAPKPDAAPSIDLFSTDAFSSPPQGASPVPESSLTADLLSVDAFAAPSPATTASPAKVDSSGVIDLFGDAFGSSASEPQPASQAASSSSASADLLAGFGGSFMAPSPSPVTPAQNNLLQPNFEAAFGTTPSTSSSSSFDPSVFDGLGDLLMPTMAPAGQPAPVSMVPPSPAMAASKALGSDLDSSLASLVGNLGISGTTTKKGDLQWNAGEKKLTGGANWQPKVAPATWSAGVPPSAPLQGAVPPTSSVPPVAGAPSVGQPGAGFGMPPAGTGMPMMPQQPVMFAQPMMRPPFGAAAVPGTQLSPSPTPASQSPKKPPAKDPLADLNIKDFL
UniProt P62314, whole entry, looked up: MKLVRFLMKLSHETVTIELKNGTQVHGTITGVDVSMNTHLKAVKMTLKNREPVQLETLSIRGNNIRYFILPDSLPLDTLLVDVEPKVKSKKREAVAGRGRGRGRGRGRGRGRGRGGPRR
UniProt Q8ND04: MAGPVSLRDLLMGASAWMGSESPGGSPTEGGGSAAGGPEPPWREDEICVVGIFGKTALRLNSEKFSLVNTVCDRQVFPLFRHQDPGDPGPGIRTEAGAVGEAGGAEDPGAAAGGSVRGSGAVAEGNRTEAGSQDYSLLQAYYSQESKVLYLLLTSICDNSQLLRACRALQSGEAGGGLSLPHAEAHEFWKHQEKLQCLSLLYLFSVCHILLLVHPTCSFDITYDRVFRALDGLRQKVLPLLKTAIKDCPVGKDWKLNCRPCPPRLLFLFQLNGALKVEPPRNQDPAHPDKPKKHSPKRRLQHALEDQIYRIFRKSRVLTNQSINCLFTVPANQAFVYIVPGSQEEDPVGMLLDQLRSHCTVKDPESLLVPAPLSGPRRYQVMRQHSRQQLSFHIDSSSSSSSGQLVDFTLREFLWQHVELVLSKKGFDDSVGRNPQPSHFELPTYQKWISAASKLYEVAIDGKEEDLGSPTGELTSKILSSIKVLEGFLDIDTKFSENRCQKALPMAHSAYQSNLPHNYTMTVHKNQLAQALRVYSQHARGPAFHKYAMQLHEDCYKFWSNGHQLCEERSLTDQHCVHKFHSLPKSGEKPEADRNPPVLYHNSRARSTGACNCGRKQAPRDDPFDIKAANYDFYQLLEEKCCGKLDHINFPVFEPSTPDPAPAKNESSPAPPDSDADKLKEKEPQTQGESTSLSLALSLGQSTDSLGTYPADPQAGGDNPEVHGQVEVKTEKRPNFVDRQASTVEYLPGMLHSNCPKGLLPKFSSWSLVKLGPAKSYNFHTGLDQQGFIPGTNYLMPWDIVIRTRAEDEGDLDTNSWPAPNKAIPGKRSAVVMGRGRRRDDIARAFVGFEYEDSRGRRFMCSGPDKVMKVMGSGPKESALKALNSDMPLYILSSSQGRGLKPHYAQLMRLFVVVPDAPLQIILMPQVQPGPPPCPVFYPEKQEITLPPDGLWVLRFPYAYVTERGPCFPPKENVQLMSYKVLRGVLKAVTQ
UniProt Q7Z3B0: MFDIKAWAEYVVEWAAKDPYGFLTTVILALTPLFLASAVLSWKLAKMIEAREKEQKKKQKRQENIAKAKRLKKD
UniProt Q9H3E2: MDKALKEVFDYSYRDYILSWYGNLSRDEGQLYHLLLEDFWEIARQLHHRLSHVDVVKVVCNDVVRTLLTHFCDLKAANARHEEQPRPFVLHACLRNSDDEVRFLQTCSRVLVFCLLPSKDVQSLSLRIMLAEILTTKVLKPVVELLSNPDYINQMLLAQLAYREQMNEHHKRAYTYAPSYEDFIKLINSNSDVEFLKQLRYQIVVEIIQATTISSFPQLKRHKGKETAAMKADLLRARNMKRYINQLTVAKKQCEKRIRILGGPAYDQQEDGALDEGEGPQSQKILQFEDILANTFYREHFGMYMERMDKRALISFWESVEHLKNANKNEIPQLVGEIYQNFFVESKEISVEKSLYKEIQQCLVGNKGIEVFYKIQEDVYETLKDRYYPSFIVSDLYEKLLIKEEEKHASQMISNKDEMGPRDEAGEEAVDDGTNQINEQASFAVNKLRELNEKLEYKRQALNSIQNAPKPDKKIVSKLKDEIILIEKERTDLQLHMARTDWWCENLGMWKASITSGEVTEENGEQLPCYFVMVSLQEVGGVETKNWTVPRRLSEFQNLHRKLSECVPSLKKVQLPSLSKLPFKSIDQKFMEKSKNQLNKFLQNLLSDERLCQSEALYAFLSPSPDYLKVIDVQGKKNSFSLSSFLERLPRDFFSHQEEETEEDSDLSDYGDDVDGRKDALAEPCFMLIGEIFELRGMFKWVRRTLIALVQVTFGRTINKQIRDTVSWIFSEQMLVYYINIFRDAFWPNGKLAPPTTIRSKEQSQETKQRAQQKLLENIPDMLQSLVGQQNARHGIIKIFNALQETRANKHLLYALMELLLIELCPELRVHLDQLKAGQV
UniProt Q13425: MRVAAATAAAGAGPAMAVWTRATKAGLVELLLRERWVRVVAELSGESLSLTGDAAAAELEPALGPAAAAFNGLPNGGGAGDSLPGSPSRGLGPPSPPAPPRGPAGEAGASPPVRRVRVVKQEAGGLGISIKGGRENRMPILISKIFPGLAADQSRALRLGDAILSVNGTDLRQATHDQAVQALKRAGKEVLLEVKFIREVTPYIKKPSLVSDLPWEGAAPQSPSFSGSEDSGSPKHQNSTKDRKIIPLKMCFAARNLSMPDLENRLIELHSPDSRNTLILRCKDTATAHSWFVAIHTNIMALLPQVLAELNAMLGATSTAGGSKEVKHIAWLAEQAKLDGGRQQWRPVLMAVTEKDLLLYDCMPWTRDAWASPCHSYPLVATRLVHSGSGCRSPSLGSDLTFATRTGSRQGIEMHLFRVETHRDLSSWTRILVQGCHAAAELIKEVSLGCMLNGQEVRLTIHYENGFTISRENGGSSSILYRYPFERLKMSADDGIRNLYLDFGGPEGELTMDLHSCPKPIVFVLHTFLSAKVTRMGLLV
UniProt P17405: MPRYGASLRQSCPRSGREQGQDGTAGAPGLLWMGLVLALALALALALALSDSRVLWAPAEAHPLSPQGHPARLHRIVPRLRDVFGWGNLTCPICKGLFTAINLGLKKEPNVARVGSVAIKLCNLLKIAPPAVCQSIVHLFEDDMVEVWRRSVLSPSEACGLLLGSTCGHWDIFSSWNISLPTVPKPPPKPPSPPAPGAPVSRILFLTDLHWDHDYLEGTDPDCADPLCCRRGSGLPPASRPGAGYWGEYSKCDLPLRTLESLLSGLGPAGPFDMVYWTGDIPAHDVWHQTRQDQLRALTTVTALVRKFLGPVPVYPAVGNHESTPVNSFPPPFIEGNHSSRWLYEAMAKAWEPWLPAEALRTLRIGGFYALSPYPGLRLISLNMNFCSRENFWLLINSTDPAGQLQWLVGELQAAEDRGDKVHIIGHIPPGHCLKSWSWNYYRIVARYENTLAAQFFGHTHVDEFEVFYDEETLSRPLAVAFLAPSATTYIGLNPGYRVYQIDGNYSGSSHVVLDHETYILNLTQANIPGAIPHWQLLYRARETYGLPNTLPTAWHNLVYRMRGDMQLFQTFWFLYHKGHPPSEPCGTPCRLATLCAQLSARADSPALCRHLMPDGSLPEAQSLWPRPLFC
UniProt Q00796: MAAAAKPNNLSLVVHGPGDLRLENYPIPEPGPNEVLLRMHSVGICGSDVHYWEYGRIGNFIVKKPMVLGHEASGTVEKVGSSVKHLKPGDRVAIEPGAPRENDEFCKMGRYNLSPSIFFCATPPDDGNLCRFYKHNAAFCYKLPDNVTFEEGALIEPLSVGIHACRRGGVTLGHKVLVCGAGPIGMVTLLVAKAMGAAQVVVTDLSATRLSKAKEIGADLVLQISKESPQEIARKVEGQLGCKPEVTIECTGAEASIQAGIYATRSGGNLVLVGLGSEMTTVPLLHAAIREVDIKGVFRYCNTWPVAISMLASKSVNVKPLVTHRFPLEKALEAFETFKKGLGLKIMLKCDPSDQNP
UniProt Q9Y5W7: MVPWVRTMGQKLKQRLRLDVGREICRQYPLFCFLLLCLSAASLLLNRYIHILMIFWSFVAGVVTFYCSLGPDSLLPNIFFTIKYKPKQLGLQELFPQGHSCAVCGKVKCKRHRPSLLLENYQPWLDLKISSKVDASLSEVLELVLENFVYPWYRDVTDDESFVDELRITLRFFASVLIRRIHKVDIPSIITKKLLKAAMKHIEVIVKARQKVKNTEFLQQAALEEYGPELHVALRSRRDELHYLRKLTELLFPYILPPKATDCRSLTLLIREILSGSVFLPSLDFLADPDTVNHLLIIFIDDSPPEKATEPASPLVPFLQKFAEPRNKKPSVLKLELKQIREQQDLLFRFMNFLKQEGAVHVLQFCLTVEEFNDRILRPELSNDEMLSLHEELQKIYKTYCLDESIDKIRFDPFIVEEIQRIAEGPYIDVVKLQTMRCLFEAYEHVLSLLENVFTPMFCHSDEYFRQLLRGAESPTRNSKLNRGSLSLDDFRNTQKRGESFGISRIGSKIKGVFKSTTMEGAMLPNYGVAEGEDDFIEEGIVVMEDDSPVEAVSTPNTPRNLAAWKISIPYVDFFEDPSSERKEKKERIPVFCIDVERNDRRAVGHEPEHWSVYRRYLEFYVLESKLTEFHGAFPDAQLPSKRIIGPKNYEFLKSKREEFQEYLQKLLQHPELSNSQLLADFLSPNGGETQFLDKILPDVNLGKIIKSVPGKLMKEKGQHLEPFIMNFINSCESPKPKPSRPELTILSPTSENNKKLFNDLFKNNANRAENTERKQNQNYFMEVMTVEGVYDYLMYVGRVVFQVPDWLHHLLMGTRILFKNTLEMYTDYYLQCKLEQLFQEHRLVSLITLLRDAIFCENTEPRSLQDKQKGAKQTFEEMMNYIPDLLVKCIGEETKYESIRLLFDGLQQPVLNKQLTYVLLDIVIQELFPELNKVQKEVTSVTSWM

Key:
Assay in all cases: log2 fold change, soluble protein after heating vs DMSO (PISA); higher = thermal stabilisation; K562 cells, 10 uM, 30 min; active = over 0.2 and 3.5 SD of the protein, either way, in both replicates (recomputed)
[1] = compound: NC(=O)Nc1cc(-c2cccc(F)c2)sc1C(=O)N[C@H]1CCCNC1
In short: (§1)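 Soluble protein was quantified by TMTpro 16plex LC-MS/MS after channel sums were equalised. It was obtained as the supernatant after 21,000xg for 90 min from pooled aliquots of K562 cells (2×10^6 cells/mL, 10 μM compound, 30 min) heated for 3 min across 48°C-58°C and extracted in PBS with 0.5% NP-40 at 4°C. Thermal stability values are relative to control samples and come from duplicates. They are given as log2 fold changes.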

[2] = compound: NC(=O)c1cnc(N[C@@H]2CCCC[C@@H]2N)nc1Nc1cccc(-n2nccn2)c1
In short: as §1

[3] = compound: NC1(c2ccc(-c3nc4ccn5c(=O)[nH]nc5c4cc3-c3ccccc3)cc2)CCC1
In short: as §1

entinostat = compound: Nc1ccccc1NC(=O)c1ccc(CNC(=O)OCc2cccnc2)cc1 [entinostat]
In short: as §1

citarinostat = compound: O=C(CCCCCCNC(=O)c1cnc(N(c2ccccc2)c2ccccc2Cl)nc1)NO [citarinostat]
In short: as §1

silmitasertib = compound: O=C(O)c1ccc2c(c1)nc(Nc1cccc(Cl)c1)c1ccncc12 [silmitasertib]
In short: as §1

[4] = compound: O=C1NC(=O)C(c2cnc3ccccn23)=C1c1cn2c3c(cc(F)cc13)CN(C(=O)N1CCCCC1)CC2
In short: as §1

[5] = compound: c1cc(OCCN2CCCCC2)cc(-c2n[nH]c3ccc(-c4nnc[nH]4)cc23)c1
In short: as §1

entospletinib = compound: c1cn2cc(-c3ccc4cn[nH]c4c3)nc(Nc3ccc(N4CCOCC4)cc3)c2n1 [entospletinib]
In short: as §1

[6] = compound: NCC(=O)Nc1ccc(-n2nc(C(F)(F)F)cc2-c2ccc3c(ccc4ccccc43)c2)cc1
In short: as §1

vorinostat = compound: O=C(CCCCCCC(=O)Nc1ccccc1)NO [vorinostat]
In short: as §1

Measured: log2 fold change

SMAGP (UniProt Q0VAQ4)
inactive: [1] -0.044 | [2] 0.319 | [3] 0.419 | entinostat -0.129 | citarinostat 0.036 | silmitasertib 0.414 | [4] -0.048 | [5] 0.002 | entospletinib 0.091

SLC9A8 isoform 2 (UniProt Q9Y2E8)
inactive: [1] -0.007 | [2] -0.092 | [3] -0.147 | [6] -0.018 | entinostat -0.002 | citarinostat 0.138 | silmitasertib 0.008 | [4] -0.052 | [5] -0.139 | entospletinib -0.076

SNCG (UniProt O76070)
inactive: [1] 0.035 | [2] -0.001 | [3] 0.024 | [6] 0.015 | entinostat -0.015 | vorinostat -0.006 | citarinostat 0.059 | silmitasertib -0.07 | [4] -0.03 | [5] 0.014 | entospletinib -0.012

SMAP1 isoform 2 (UniProt Q8IYB5)
inactive: [1] 0.036 | [2] -0.034 | [3] 0.025 | [6] 0.046 | entinostat 0.045 | vorinostat 0.058 | citarinostat 0.062 | silmitasertib 0.03 | [4] 0.045 | [5] 0.009 | entospletinib -0.015

SMYD2 (UniProt Q9NRG4)
inactive: [1] 0.09 | [2] -0.122 | [3] -0.195 | [6] -0.123 | entinostat 0.028 | vorinostat 0.074 | silmitasertib 0.079 | [4] 0.09

SNAP91 (UniProt O60641)
inactive: [1] -0.019 | [2] 0.025 | [3] -0.034 | [6] 0.002 | entinostat 0.024 | vorinostat 0.076 | citarinostat 0.153 | silmitasertib 0.024 | [4] -0.033 | [5] 0.007 | entospletinib -0.058

SNRPD1 (UniProt P62314)
inactive: [1] -0.041 | [2] -0.036 | [3] 0.078 | [6] -0.018 | entinostat -0.058 | vorinostat -0.089 | citarinostat -0.007 | silmitasertib 0.074 | [4] -0.022 | [5] -0.035 | entospletinib 0.056

SLC9A3R1 (UniProt O14745)
inactive: [1] -0.011 | [2] 0.018 | [3] 0.027 | [6] 0.055 | entinostat -0.046 | vorinostat -0.026 | citarinostat -0.005 | silmitasertib -0.052 | [4] -0.026 | [5] 0.054 | entospletinib 0.012

SMG8 isoform 2 (UniProt Q8ND04)
inactive: [1] 0.121 | [2] 0.124 | [6] -0.055 | entinostat -0.047 | vorinostat 0.025 | citarinostat 0.041 | [4] 0.233 | [5] 0.044 | entospletinib 0.054

SMIM15 (UniProt Q7Z3B0)
inactive: [1] 0.161 | [2] -0.027 | [3] 0.102 | [6] 0.099 | entinostat 0.045 | vorinostat -0.001 | citarinostat 0.133 | silmitasertib -0.048 | [4] 0.216 | [5] -0.068 | entospletinib 0.09

SNX25 (UniProt Q9H3E2)
inactive: [1] -0.11 | [2] 0.128 | [3] -0.211 | entinostat -0.013 | silmitasertib -0.04

SMCR8 (UniProt Q8TEV9)
inactive: [1] 0.036 | [2] -0.004 | [3] -0.012 | entinostat -0.005 | vorinostat 0.055 | citarinostat -0.006 | silmitasertib -0.017 | [4] -0.022 | [5] 0.061 | entospletinib -0.19

SOD1 (UniProt P00441)
inactive: [1] -0.018 | [2] 0.002 | [3] 0.038 | [6] 0.005 | entinostat 0.008 | vorinostat -0.021 | citarinostat 0.011 | silmitasertib -0.056 | [4] 0.007 | [5] -0.04 | entospletinib 0.014

SOD3 (UniProt P08294)
inactive: [1] -0.029 | [2] 0.018 | [3] 0.062 | [6] 0.056 | entinostat 0.094 | vorinostat -0.142 | silmitasertib -0.004

SNTB2 (UniProt Q13425)
inactive: [1] -0.072 | [2] -0.024 | [6] -0.081 | entinostat -0.033 | vorinostat 0.021 | citarinostat 0.031 | [4] -0.002 | [5] 0.031 | entospletinib -0.065

SMPD1 (UniProt P17405)
inactive: [1] 0.106 | [2] 0.182 | [3] -0.11 | [6] -0.521 | entinostat -0.097 | vorinostat -0.098 | silmitasertib -0.341

4 successive entries already listed, for reference:
SOD1 (UniProt P00441)
inactive: [1] -0.018 | [2] 0.002 | [3] 0.038 | [6] 0.005 | entinostat 0.008 | vorinostat -0.021 | citarinostat 0.011 | silmitasertib -0.056 | [4] 0.007 | [5] -0.04 | entospletinib 0.014

SOD3 (UniProt P08294)
inactive: [1] -0.029 | [2] 0.018 | [3] 0.062 | [6] 0.056 | entinostat 0.094 | vorinostat -0.142 | silmitasertib -0.004

SNTB2 (UniProt Q13425)
inactive: [1] -0.072 | [2] -0.024 | [6] -0.081 | entinostat -0.033 | vorinostat 0.021 | citarinostat 0.031 | [4] -0.002 | [5] 0.031 | entospletinib -0.065

SMPD1 (UniProt P17405)
inactive: [1] 0.106 | [2] 0.182 | [3] -0.11 | [6] -0.521 | entinostat -0.097 | vorinostat -0.098 | silmitasertib -0.341

Carrying on:

SORD (UniProt Q00796)
inactive: [1] -0.006 | [2] -0.003 | [3] 0.014 | [6] 0.004 | entinostat -0.01 | vorinostat -0.017 | citarinostat 0.025 | silmitasertib -0.013 | [4] -0.024 | [5] 0.006 | entospletinib -0.005

SNX14 (UniProt Q9Y5W7)
inactive: [1] 0.001 | [2] -0.064 | [3] 0.132 | [6] 0.058 | entinostat 0.071 | citarinostat 0.043 | silmitasertib 0.061 | [4] 0.056 | [5] 0.029 | entospletinib -0.028

SP6 (UniProt Q3SY56)
inactive: [1] -0.062 | [2] 0.007 | [3] -0.144 | [6] 0.137 | entinostat -0.056 | citarinostat -0.104 | silmitasertib -0.021 | [4] -0.016 | [5] 0.101 | entospletinib -0.018
